This passage reports Kd results from the AptaBench aptamer set (doi:10.1093/nar/gkaf219).

As a reminder, the Kd is the free concentration of one partner at which half of the binding sites on the other are occupied at equilibrium, for simple one-to-one binding. A lower Kd goes with higher affinity.

For the assay, the system named is DNA aptamer or structured DNA GGGACGACAGGGATTCGCGGATTCGGAGAAAAGGGCTCGTACGTCGTCCC
To be noted: 10 mM Tris-HCl, pH 7.4.

Turning to `CN1CC[C@]23c4c5ccc(O)c4O[C@H]2[C@@H](O)C=C[C@H]3[C@H]1C5`, the Kd worked out at 22.2 µM.
